Assay results taken from paper PMC7464140, “Cooperative Regulation of Campylobacter jejuni Heat-Shock Genes by HspR and HrcA” (Microorganisms, 2020).
For at least one entry, the source does not settle the construct or the ends of the probe.

Key:
[1] = molecular target: His-HrcA (Campylobacter jejuni) (UniProt Q9PPG2); assay: DNase I footprinting; conditions: 5 mM Tris-HCl pH 8.0, 60 mM NaCl, 5 mM KCl, 5 mM MgCl2, 0.2 mM DTT, 0.01% NP-40, 10% glycerol, 200 ng salmon sperm DNA in 50 uL, room temperature, 15 min, recombinant protein, residues 1-264, protein details: N-terminal 6xHis (pET15b), label: 5'-32P, probe letters rebuilt from the primers and the genome, part of a longer molecule
[2] = molecular target: His-HspR (Campylobacter jejuni) (UniProt Q0P926); assay: DNase I footprinting; conditions: 5 mM Tris-HCl pH 8.0, 60 mM NaCl, 5 mM KCl, 5 mM MgCl2, 0.2 mM DTT, 0.01% NP-40, 10% glycerol, 200 ng salmon sperm DNA in 50 uL, room temperature, 15 min, recombinant protein, protein details: N-terminal 6xHis (pET15b), label: 5'-32P, probe letters rebuilt from the primers and the genome, part of a longer …

Sequence | binding result ([1]; 0-360 nM HrcA) | binding result ([2]; 0-180 nM HspR) | binding result ([1]; with 360 nM HspR prebound, footprint enhanced vs 360 nM GST control (cooperative)) | binding result ([2]; with 360 nM HrcA prebound, footprint enhanced vs 360 nM GST control (cooperative)) | binding result ([2]; protection from 22 nM HspR (-20 to -55), second region at higher HspR)
CCAATAGGTGCATTATCCAAAAGATAAGTTTGAATAATAGACTCTAAAATCAAATCCTTTTTATCTCGACTTTTCATCATATTTTCCTTCATATCTAGCACTCTATTTTTTGATTGCTAGATATATTATACAACATTGAGTGTTATTTTGTCAAGTATAAATATAAAAAAATATACTTAATTTTATTTAGTCAATATGACTAAAGTTTTATTAGTTACTTTTTTATAAGGATAAGCTATCTTTTAAGATTGAAAATGCAATGATAAAAATAAGATGAAAATTTTAAATTGAATTGATTGTCTAGTTTTTTAAAGGTATAAGATATTAAAATAAAAAACCAAAGAAGCCTTTGAAAGCTCTTTGGTTCTTCTATCAAAGCTTAAAAGTTACCATTGATAGAAATATACATTCTTCTTCCTTC (double strand) [Phrc] | binds | binds | – | – | –
CGCGTTTAACTAGAACACGCTTTCCTAAAGGTTGAAAATTCATTTTTGTCCATCCTTAAAAATATTGATTTTAGCACTCTTTAATTTAGAGTGATAATATCATACTATAAAAAATGAATTTTGTCAATACTTTAAATTAAAATATTTATAAAAGTTTAGTTTTATAGACTAAAGTTATTTTATAAAATAAACTAAAGGATAAAAATGAAAAAGATTTTTTATGGCATTGTAGCTTTTGTTGTTGTGC (double strand) [Pgro] | binds | binds | binds | binds | –
CTTGCAGCAAATAAAGCACTTGCTAAACTTAATGATAAAAAAATCTTTTTCATTTCATTTCCTTTTGTTCTTAAAGATAAATTATCTCGTAAAATATTTTACTGTCTTCATAGTATAAAACCGAAAATTTACAAAATTGTAAATAAAACCTTGAGTGATAAAAATTTATAAAACTTGATTGACTTAGGCTAAAGTTTATGTTATAATTTAATCCTCTATATAATCAAGTAAAAATTTTTAAGGAAATATAACATGAATAGTTTATACGAAACTCTTGGAGTTAGC (double strand) [Pcbp] | – | – | – | – | binds
GATATTCAAAGTATAGAAGAATTAAACAAGGCTATAGATATGTTTATGAAATAATCTAAAATTAGTCATTTGTCCTATTATTTAAAAAATTTTACTCAATTAACTTGACATTATATGACTAAAGTTATATAATAGCAAGTCTATAAACTAAATAAAGGATAAAACATGGCAAATATACAAGATTTTTTAACTGATAATATGC (double strand) [Pclp] | – | binds | – | – | –
